This is an account of results in PMC10782585.

Protein sequences, listed by entry. Tags and fused reporters are not part of them.
UniProt Q00987: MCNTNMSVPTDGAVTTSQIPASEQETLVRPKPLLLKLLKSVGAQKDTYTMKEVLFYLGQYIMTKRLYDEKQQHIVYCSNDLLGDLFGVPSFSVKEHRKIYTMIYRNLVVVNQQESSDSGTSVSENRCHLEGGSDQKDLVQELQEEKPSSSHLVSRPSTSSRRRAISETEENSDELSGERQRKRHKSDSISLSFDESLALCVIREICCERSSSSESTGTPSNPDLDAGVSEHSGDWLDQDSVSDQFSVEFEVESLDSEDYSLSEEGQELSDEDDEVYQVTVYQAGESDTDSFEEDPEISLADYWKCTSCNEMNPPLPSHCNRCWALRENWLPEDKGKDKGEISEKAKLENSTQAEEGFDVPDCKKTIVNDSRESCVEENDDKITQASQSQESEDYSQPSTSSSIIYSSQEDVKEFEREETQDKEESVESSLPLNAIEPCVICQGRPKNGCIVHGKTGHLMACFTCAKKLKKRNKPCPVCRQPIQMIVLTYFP

Results are given in words; binding and its absence hold for the method and conditions named. In cells and extracts the contact can be indirect. Some entries that bind do so weakly or less than the wild type. For part of these data: Sequences can lack the tags named with a protein.

In test [1] the target is T1, Flag-tagged AGPS Y451A mutant (UniProt O00116).
T1 sequence: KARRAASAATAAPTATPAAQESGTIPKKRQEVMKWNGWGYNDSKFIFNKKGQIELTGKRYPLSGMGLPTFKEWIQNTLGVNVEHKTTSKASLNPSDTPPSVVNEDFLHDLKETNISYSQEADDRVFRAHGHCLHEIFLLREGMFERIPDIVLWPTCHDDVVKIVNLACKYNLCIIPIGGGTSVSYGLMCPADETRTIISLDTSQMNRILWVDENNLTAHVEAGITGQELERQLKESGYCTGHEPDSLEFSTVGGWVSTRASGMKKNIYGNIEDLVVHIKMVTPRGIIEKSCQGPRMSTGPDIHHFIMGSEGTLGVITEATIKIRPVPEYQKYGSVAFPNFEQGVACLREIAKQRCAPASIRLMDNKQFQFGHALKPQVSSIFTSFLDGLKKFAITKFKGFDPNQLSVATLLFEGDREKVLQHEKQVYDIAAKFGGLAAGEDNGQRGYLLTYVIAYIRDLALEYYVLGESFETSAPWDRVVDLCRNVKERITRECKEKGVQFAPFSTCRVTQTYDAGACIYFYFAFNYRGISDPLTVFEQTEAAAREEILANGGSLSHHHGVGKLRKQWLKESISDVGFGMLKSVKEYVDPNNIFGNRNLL
In words: co-IP; Flag-tagged AGPS (wild type or mutant) and Myc-tagged MDM2 ectopically expressed, DU145; lysate shaken overnight at 4 °C with anti-Flag antibody and protein A + G agarose, blot; cells treated with MG132 (20 μM, 8 h); also with λpp (1U/ml, 2 h) or after NTRK1 knockdown.

Test [2] has as its target Flag-tagged wild-type AGPS (alkylglycerone phosphate synthase) (UniProt O00116). The description is as above.
Test [3] concerns the target endogenous AGPS (human (endogenous in prostate cancer cells, line not stated)) (UniProt O00116). Kind of test: co-IP; endogenous AGPS and MDM2; cell line and precipitating antibody not told.

For the substance “Myc-tagged MDM2 (mouse double minute 2) (from UniProt Q00987 1-491) (enzyme)”, the binding result in test [1] and in test [2] was “binds” throughout.

With “endogenous MDM2 (from UniProt Q00987 1-491) (enzyme)”, in test [3], the binding entry is recorded as “binds”.
